Patent US20170362184A1, “PRO-SURVIVAL COMPOUNDS” (University Court of The University of Glasgow, priority 2014, published 2017)
Some entries share one result that the patent states for a list of compounds.

Key:
[1] = test system: hPSC (hESC line H1); assay: long term exposure: consecutive enzymatic passages supported; assay type: cell-based, human
[2] = test system: hPSC (H1 hESC); assay: flow cytometric analysis of hPSC surface markers SSEA4 and SSEA1; assay type: cell-based, human; details: enzymatic passage over 30 consecutive passages, flow cytometry

| SMILES | consecutive enzymatic passages of hPSC supported [1] | SSEA1 positive cells (differentiation marker) [2] [%] | SSEA4 positive cells (pluripotency marker) [2] [%] |
| --- | --- | --- | --- |
| Cc1cc(NC(=O)Cn2c(NCc3ccccc3)nc3ccccc32)no1 [SC332, 2-(2-(benzylamino)-1H-benzo[d]imidazol-1-yl)-N-(5-methylisoxazol-3-yl)acetamide] | at least 30 consecutive passages | < 5 | > 90 |
| C[C@@H](N)[C@H]1CC[C@H](C(=O)Nc2ccncc2)CC1 [Y27632, reference compound] | at least 30 consecutive passages | < 5 | > 90 |
